# Test results: publication PMC12040169 (PLOS Biology, 2025)
# The other results are listed elsewhere or left out.
# Tested on: T1, CTL2-GFP (C. trachomatis L2/434/Bu, GFP-expressing)
# T1 construct: L2/434/Bu, GFP-expressing
# Design: species or system HeLa; Intracellular C. trachomatis growth in HeLa cells, bulk GFP fluorescence relative to DMSO
# Conditions: bulk GFP, single well; 28.5 h, 10 µM; inhibitor
row,Compound,% of control remaining
1,CN1CCN(C(=O)CCn2c(C(F)F)cc3cccnc32)CC1 [CBK285023],112.522%
2,O=C(NC/C=C/c1cn(C2CC(O)C(CO)O2)c(=O)[nH]c1=O)C(F)(F)F (stereo not drawn) [CBK201249],104.156%
3,Cc1cnn(C2CCCN(C(=O)CC3C(=O)Nc4ccccc43)C2)c1 (stereo not drawn) [CBK304930],63.4735%
4,COc1ccc(N2C(=O)CC(NCCNc3ccc([N+](=O)[O-])cn3)C2=O)cc1 (stereo not drawn) [CBK263593],126.568%
5,CCN1CCN(c2ccc(NC(=O)c3ccc([N+](=O)[O-])c(C)c3)cc2)CC1 [CBK266503],193.155%
6,O=C(NNC(=O)c1ccccc1C(=O)O)c1cccc(Cl)c1 [CBK261658],100%
7,COc1ccccc1CNCCCN1CCOCC1 [CBK278310C],178.471%
8,COC(=O)c1ccsc1NS(=O)(=O)c1ccc(Br)cc1 [CBK039058],156.004%
9,CN(C)Cc1ccc(C(=O)NCC(C)(C)N2CCCCC2)cc1 [CBK281865],107.748%
10,O=C(CN(c1ccccc1)S(=O)(=O)c1ccccc1[N+](=O)[O-])NC1CCCCC1 [CBK262328],101.134%
11,Cn1cc(CCC(=O)NC(Cc2ccncc2)[C@H]2C[C@H](O)C2)cn1 (stereo partly drawn) [CBK307292],120.046%
12,NS(=O)(=O)c1ccc(Nc2nc(-c3ccccc3)c(CC(=O)O)s2)cc1 [CBK131899],88.2647%
13,NC(=O)CCN1CCCC2(CCN(C(=O)c3ccoc3)C2)C1 (stereo not drawn) [CBK132816],90.3901%
14,CC(=O)N1CCc2cc(-c3cc4ccccn4c3)ccc21 [CBK285224],122.314%
15,O=S(=O)(Nc1cccnc1)N1CCOCC1 [CBK269362],119.88%
16,CCOC(=O)c1cnn2c(O)cc(CN3CCCCC3)nc12 [CBK305585],133.137%
17,CN(C)CCN(C)c1cncc(-c2cccc(N)c2)n1 [CBK065270],189.313%
18,CCCc1ccc(C(C)NC(=O)C2CC2C)cc1 (stereo not drawn) [CBK057847],89.424%
19,CCC(CN1CCN(C)CC1)NC(=O)Cc1ccc2c(c1)CCC2 (stereo not drawn) [CBK282784],106.906%
20,Cc1cc(O)cc(C2CCCN(C(=O)c3ccc(F)c(F)c3)C2)n1 (stereo not drawn) [CBK283406],107.404%
21,O=C(c1ccc2ncccc2c1)N1CCN(Cc2ccccc2)CC1 [CBK200175],133.741%
22,CCCCN(C(C)=O)c1c(CC)nc2ccc(C(=O)N(C)CCN(C)C)cn12 [CBK145739],118.427%
23,C[S+]([O-])c1sc(Cl)c2c1C(=O)CCC2 (stereo not drawn) [CBK005657],103.562%
24,COc1ccc(N2C(=S)N(CC3CCCCC3)[C@H]3[C@H]4OC(=O)[C@H](C[C@H]4O)[C@H]32)cc1 [CBK288939],102.837%
25,CCn1c2ccccc2c2cc(CN(C)Cc3ccccc3)ccc21 [CBK261901],99.0279%
26,COc1cccc(OC)c1-c1cn2ccnc2c(N[C@H](CO)C(C)C)n1 [CBK036586],86.9045%

row,Compound,% of control remaining
1,CN1CCN(c2ccc(NC(=O)c3ccc(OCc4ccccc4)cc3)cc2Cl)CC1 [CBK269080],103.156%
2,CC(C)n1cc(CN2CCNC(=O)C2c2ccccc2C(F)(F)F)nn1 (stereo not drawn) [CBK304732],87.7873%
3,CCOC(=O)c1c(NC(=O)Cn2cnc([N+](=O)[O-])n2)sc2c1CCC2 [CBK263042],100%
4,CN1CCN(N/C=C2/C(=O)N(c3ccc([N+](=O)[O-])cc3)N=C2c2ccccc2)CC1 [CBK262763],129.607%
5,Cc1ccc([N+](=O)[O-])cc1/C=C(/C#N)c1nc2ccccc2s1 [CBK267085],93.6714%
6,CSc1nc2ccccc2c2nc(-c3ccncc3)nn12 [CBK288566],150.545%
7,CCOc1cc(C=Cc2cc(C(=O)O)c3ccccc3n2)ccc1OC(F)F [CBK296952],126.455%
8,O=C(Nc1ccc2nonc2c1)N1CCOCC1 [CBK057530],147.483%
9,O=C(NCC1CCCO1)c1cc(S(=O)(=O)N2CCOCC2)c(Cl)cc1Cl (stereo not drawn) [CBK269691],128.773%
10,Cc1ccnc(Sc2nc3c(c(=O)[nH]c(=O)n3C)n2CCCc2ccccc2)n1 [CBK269353],132.408%
11,Cc1ccc(C(=O)N(C)C2CCCCC2)cc1C [CBK083667],105.445%
12,Cn1c(CN2CCN(C3CCCC3)C(=O)C2)nc2ccccc21 [CBK281577],94.3741%
13,CC(=O)N1CCc2c(nc(N(C)C)nc2NCCCOC(C)C)C1 [CBK306745],120.59%
14,Cc1ccc(C2C3=C(CC(C)(C)CC3=O)Nc3[nH][nH]c(=O)c32)o1 (stereo not drawn) [CBK288147],117.616%
15,O=C(O)CCc1ccc(-c2cc(N3CCN(c4ccccn4)CC3)ncn2)cc1 [CBK037821],101.046%
16,COc1cc(C2NC(C(=O)O)Cc3c2[nH]c2ccccc32)cc(OC)c1OC (stereo not drawn) [CBK219193],94.5791%
17,CNC(=O)c1cccc(NC(=O)c2cc(Br)cnc2NCC2CC2)c1 [CBK076380],90.3637%
18,CC(=O)c1ccc(N(C)C)cc1 [CBK033830],111.073%
19,Cc1ccccc1OCC(=O)N1CC(=O)Nc2ccccc21 [CBK300535],124.727%
20,Clc1ccc(COc2cc(N3CCCN(CC4CC4)CC3)ncn2)cc1Cl [CBK084070],144.419%
21,CCOc1ccc(S(=O)(=O)N(CC)CC(=O)O)cc1C [CBK269770],146.602%
22,CCc1nnc(NS(=O)(=O)c2ccc(NC(=S)NC(=O)c3ccco3)cc2)s1 [CBK018917],15.0642%
23,CC(=O)c1c(C)nn2c3ccccc3n(CCN3CCOCC3)c12 [CBK262709C],101.485%
24,O=C(CSc1ccccc1[N+](=O)[O-])Oc1ccccc1 [CBK265501],112.723%
25,CCn1c(C2CCN(C(=O)CCCn3cncn3)CC2)nn(C)c1=O [CBK307326],89.8258%
26,Cc1cc(C)c2[nH]c(C(=O)NCc3c(C)n[nH]c3C)c(C)c2c1 [CBK283254],112.607%

# Reprinted at random: 5 entries already listed.
row,Compound,% of control remaining
13,CC(=O)N1CCc2c(nc(N(C)C)nc2NCCCOC(C)C)C1 [CBK306745],120.59%
15,O=C(O)CCc1ccc(-c2cc(N3CCN(c4ccccn4)CC3)ncn2)cc1 [CBK037821],101.046%
21,CCOc1ccc(S(=O)(=O)N(CC)CC(=O)O)cc1C [CBK269770],146.602%
10,Cc1ccnc(Sc2nc3c(c(=O)[nH]c(=O)n3C)n2CCCc2ccccc2)n1 [CBK269353],132.408%
22,CCc1nnc(NS(=O)(=O)c2ccc(NC(=S)NC(=O)c3ccco3)cc2)s1 [CBK018917],15.0642%

# Further results:

row,Compound,% of control remaining
1,CCN(CC)Cn1nc(Nc2ccccc2)n(-c2ccccc2)c1=S [CBK261672],100%
2,Cc1cccc(N2CCN(CCCC(c3ccc(F)cc3)c3ccc(F)cc3)CC2)n1 [CBK025113C],104.936%
3,O=S1(=O)CCC(SCc2ccccc2)C1 (stereo not drawn) [CBK019237],142.706%
4,O=C(O)c1cc2oc3ccccc3c3ccccc3oc2cc1C(=O)Nc1cccc([N+](=O)[O-])c1 [CBK265500],120.283%
5,O=c1c2cnn(-c3ccccc3)c2nc(Cc2ccccc2)n1-c1cccc2ccccc12 [CBK262316],121.395%
6,CC1CCC(NC(=O)CN2C3CCC2CC(O)(c2ccco2)C3)CC1 (stereo not drawn) [CBK284036],131.225%
7,NC(=O)CN1CC2(CCN(Cc3ccc(Cl)c(Cl)c3)CC2)c2ccccc21 [CBK126775],102.02%
8,CCOC(=O)N1CCN(S(=O)(=O)c2ccc3oc(=O)ccc3c2)CC1 [CBK305870],114.416%
9,Cc1cc(NS(=O)(=O)c2ccc3oc(=O)ccc3c2)n(C)n1 [CBK067250],128.636%
10,O=C(CC1C(=O)N(c2cccc(Cl)c2)C(=O)N1CCc1cccs1)Nc1ccccc1 (stereo not drawn) [CBK267499],121.399%
11,O=c1[nH]c(=O)c2cc(S(=O)(=O)NCCN3CCc4ccccc43)ccc2[nH]1 [CBK286360],134.866%
12,Oc1cccc2ccc(/C=C/c3ccc(-c4ccccc4Cl)o3)nc12 [CBK264445],124.976%
13,CC(=O)N1CCCc2cc(C(O)CN3CCN(c4cccc(C)c4)CC3)ccc21 (stereo not drawn) [CBK286457],110.146%
14,O=c1cc(CN2CCC[C@@H]2CN2CCCC2)[nH]c(=O)[nH]1 [CBK149108],92.78%
15,O=C(O)COc1ccc2c(=O)c(Oc3ccc(Cl)cc3)c(C(F)(F)F)oc2c1 [CBK296087],126.147%
16,O=C1N[C@@H]2CCN(C(=O)Cc3ccc(O)cc3)C[C@@H]2C/C=C/CCOc2ccccc21 [CBK292043],122.304%
17,CCn1nc(C(C)C)cc1C(=O)NCCN1CCC(C)CC1 [CBK282107],131.847%
18,O=C(Nc1cc2ccccc2c(Br)n1)N[C@@H]1C[C@H]1c1ccccc1 [CBK063276],100%
19,CCCC12CN3CC(C)(CN(C1)C31C(=O)Nc3ccc(C)cc31)C2=O (stereo not drawn) [CBK268491],102.305%
20,CS(=O)(=O)N(CC(=O)Nc1ccccc1C(F)(F)F)Cc1ccc(Cl)cc1 [CBK267854],130.851%
21,Cc1ccccc1C1(O)CCN(CC(O)c2ccccc2)CC1 (stereo not drawn) [CBK282491],131.726%
22,Cc1ncc(CN2CCCC(Cc3nc4ccccc4[nH]3)C2)s1 (stereo not drawn) [CBK281902],130.397%
23,Cc1ccc(C)c2nc3c(cc12)CN(C1CC1)C(=O)CO3 [CBK282858],114.827%
24,CN(C)c1ccc(/C=C2/C(=N)N3N=C(c4ccccc4Cl)SC3=NC2=O)cc1 [CBK097554],137.24%
25,CC(C)/N=C1/N[C@@H]2CS(=O)(=O)C[C@H]2O1 [CBK019692G],134.625%
26,O=C1CC[C@@H](NCc2ccoc2)[C@H](c2cc(F)cc(F)c2)N1 [CBK282912],106.518%
